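Tryptophan-tRNA ligase, Mycobacterium tuberculosis (UniProt P9WFT3). Enzyme assay of tryptophanyl-tRNA synthetase; the read-out is not stated. Concentration: 10 µM. Higher most likely means stronger inhibition; the record gives no direction and few retests gave an IC50. About 65,000 compounds were tested under these conditions; 0.098% (about 64) showed 50% or more at least once.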

Amino acid sequences for entries named in this document (tags omitted).
UniProt P9WFT3, whole entry: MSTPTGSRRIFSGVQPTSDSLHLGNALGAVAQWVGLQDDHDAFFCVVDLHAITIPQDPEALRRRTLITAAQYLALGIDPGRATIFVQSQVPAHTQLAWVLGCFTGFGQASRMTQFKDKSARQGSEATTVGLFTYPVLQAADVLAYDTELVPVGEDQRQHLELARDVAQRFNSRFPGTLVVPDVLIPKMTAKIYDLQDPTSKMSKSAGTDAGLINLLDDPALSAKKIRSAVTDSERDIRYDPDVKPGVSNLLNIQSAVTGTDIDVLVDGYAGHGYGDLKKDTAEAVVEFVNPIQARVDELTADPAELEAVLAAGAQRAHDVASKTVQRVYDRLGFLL

Values are the deposited “Percent Effect”, in %. The record does not define 0% and 100%; most values in the screen are far below 50% and negative numbers occur (in some assays of this library far below -100). Compounds were drawn at random from those tested, without regard to their results.

SMILES | percent effect
CC(Nc1cccc2c1OCCO2)C(=O)Nc1ccc(Cl)cc1 (stereo unspecified) | 1.38
NC(=O)N1CCCC(c2nc(-c3cccnn3)no2)C1 (stereo unspecified) | -1.651
CCCOC1CCCN(C(=O)c2[nH]nc(C)c2Br)C1 (stereo unspecified) | -1.009
Cc1cc(C)n(CCCNC(=O)NCc2c(C)cc(C)[nH]c2=O)n1 | -0.7597
CC(c1cccc(F)c1)N1CCN(Cc2nccn2C)CC1 (stereo unspecified) | -1.755
CN(C1CCN(c2ccccn2)CC1)S(=O)(=O)N1CCOCC1 | -0.6189
O=C(c1ccco1)N1C[C@H]2CCCN(Cc3nccs3)[C@H]2C1 | -0.3487
COc1ccc(CN2CCc3ncnc(C4CCOC4)c3CC2)cc1 (stereo unspecified) | -5.981
COCC1c2nnn(CC3CC3)c2CCN1C(=O)CS(C)(=O)=O (stereo unspecified) | -3.653
COC(=O)CNC(=O)C1(NC(=O)c2ccc3[nH]ncc3c2)CCCC1 | -3.641
CC(C)c1nccc(CN2CCC(c3nc4ccccc4n3C)CC2)n1 | 4.379
C=Cc1cccc(CN2C[C@@H](CN(C)CC)[C@@H](CO)C2)c1 | -7.815
O=C(c1c[nH]nc1-c1cccc(F)c1)N1CCNC(c2ccccc2)C1 (stereo unspecified) | 7.636
CCc1nnsc1C(=O)N(C)Cc1ccc(C)o1 | -1.955
Cc1nn(C)c(C)c1C1COCCN1C(=O)c1cnc(N)c(Cl)c1 (stereo unspecified) | -2.798
COc1ccccc1C1(NCc2c(C)nc3c(C)cccn23)CCCC1 | 11.08
NC(=O)CN1CCC(C(=O)NCc2nc(-c3ccc(F)cc3)cs2)CC1 | 2.812
Cc1occc1C(=O)N1C[C@@H]2OCCN(c3ncccn3)[C@@H]2C1 | -6.649
CNC(=O)c1c(C)cccc1NCc1noc(C2CC2)n1 | 1.947
CCNc1ncc(CN2C[C@@H](C(=O)O)[C@H](C3CC3)C2)cn1 | -1.975
CCOc1ccc(-n2ccc3nc(N4CCCC4)ncc3c2=O)cc1 | -1.273
COc1cccc2c3c(c(=O)[nH]c12)CC(C)(C)O3 | -0.08157
COc1ncccc1NC(=O)C1CCS(=O)(=O)C1 (stereo unspecified) | -1.199
O=C(NCCc1nnc2n1CCC2)N1CCC2(CCCCC2)C1 | -5.68
CCC(=O)N1C[C@@H]2CCN(c3cnccn3)C[C@@H]2C1 | 1.99
O=C(c1cccc2ccnn12)N1CCC[C@H]1CN1CCCC1 | 4.558
Cc1[nH]ncc1CCCNC(=O)Nc1ccc(F)cc1 | 3.616
Cc1noc(C)c1-c1cc(C2CCNCC2)ccn1 | -5.02
Cc1cnc(CN2CCN(c3ccc4nncn4n3)C(C)C2)cn1 (stereo unspecified) | -4.284
NC(=O)C1CCCN(C(=O)c2ccn(-c3ccc(F)cc3)n2)C1 (stereo unspecified) | -6.671
CC(C)c1n[nH]c(C(=O)Nc2cc[nH]n2)c1Br | -28.4
CSCCN1CCC(NC(=O)c2cccc(C3CCCNC3)c2)CC1 (stereo unspecified) | 1.377
CC(C)N(C)S(=O)(=O)N1CCCC1C(=O)N1CCSCC1 (stereo unspecified) | 1.867
c1ccc(-n2nnnc2CNCC2CCCN2c2cccnn2)cc1 (stereo unspecified) | 4.066
O=S(=O)(NCC1(O)CCOc2ccccc21)c1ccccc1F (stereo unspecified) | 2.346
CC(Cn1cccn1)C(=O)N1CCC(Nc2cccnn2)CC1 (stereo unspecified) | -1.356
COCCc1noc(CN2CCCC2c2noc(C)n2)n1 (stereo unspecified) | 0.9684
COc1ccc(NC(=O)N2CCCC2c2ccco2)cc1OC (stereo unspecified) | 1.874
Cc1nc(N2CCOCC2)nc2c1CCN(C(=O)NC1CCCC1)CC2 | 8.241
COc1cc(CNC2CCc3nc(C(C)C)nn3C2)cc2c1OCO2 (stereo unspecified) | 1.852
OCCCN1CCCC1c1nc(Cc2ccc(F)cc2)no1 (stereo unspecified) | -1.48
CC(C)(C)c1nnc(CNc2cc(F)ccc2OCC2CCCO2)o1 (stereo unspecified) | 0.7936
C=C(C)CN(CC)Cc1nc(C(C)(C)C)no1 | 17.34
COCCn1ccc2cc(C(=O)N3CCN(S(C)(=O)=O)CC3)ccc21 | -0.9488
CN1CC(=O)N(c2cccc(F)c2)CC12CCN(Cc1cccnc1)C2 (stereo unspecified) | -6.284
COc1cccc(-c2nnn(C3CCN(CC(F)(F)F)C3=O)n2)c1 (stereo unspecified) | -0.4182
COc1cccc(N2CCN(Cc3ccc(NC(C)=O)cc3)CC2=O)c1 | 12.13
Cc1cc(C(=O)N(C)CC(F)(F)C(F)(F)F)ccc1-n1cncn1 | -2.785
CC(O)c1cn(Cc2ccc(Cl)cc2)nn1 (stereo unspecified) | 1.001
Cc1cc(C)n2ncc(CN3CCC(n4cc(CCO)nn4)CC3)c2n1 | -4.156
Cc1cccc(C(=O)N2Cc3ccccc3C3(CCN(C)CC3)C2)n1 | -1.604
CCOc1ccccc1C(CC(=O)O)NC(C)=O (stereo unspecified) | -0.149
Cc1n[nH]c(C2CN(C(=O)c3ccn(C)c(=O)c3)CCO2)n1 (stereo unspecified) | 6.914
c1cc2c(cc1CN1CC[C@H]3[C@H]1CCN3CC1CC1)OCO2 | -8.327
COc1cccc(C(C(=O)O)N2CCC(Cn3cccn3)CC2)c1OC (stereo unspecified) | -3.166
O=C(C1CC1)N1CC[C@@H]2[C@H](CC1)N(Cc1cccnc1)CCS2(=O)=O | 4.083
O=C1N(c2ccccc2)C[C@H]2CN(C3CCC3)CCN12 | -0.0753
NC(=O)C1CN(C(=O)Nc2ccccc2N2CCCCCC2)CCO1 (stereo unspecified) | -3.596
Cc1ccc(N2CCCC(NCc3sccc3C)C2)nn1 (stereo unspecified) | 4.117
Cc1cnn(CC2CN(CCS(=O)(=O)c3ccccc3)CCO2)c1 (stereo unspecified) | 0
Cc1cc(O)cc(=O)n1CCCC(=O)Nc1n[nH]c2ccccc12 | 2.72
Cc1noc(CCCC(=O)N2CCCCC2c2nccs2)n1 (stereo unspecified) | -1.754
O=C(Nc1cc(-c2cccnc2)no1)C1CCC1 | -3.469
Cn1c(C(=O)N2CCOCC2)nc2c1CCN(c1ncccn1)C2 | -4.423
Cc1cncc(C(=O)NCC2COCc3c(C)nnn3C2)c1 (stereo unspecified) | -1.365
Cc1ccc(C(=O)N2C[C@@H]3CN(c4ncccn4)C[C@@H]3C2)cn1 | -3.843
NC(=O)c1ccc(S(=O)(=O)NCCc2ccccn2)cc1 | -5.218

Some entries from above, unchanged:

SMILES,percent effect
COC(=O)CNC(=O)C1(NC(=O)c2ccc3[nH]ncc3c2)CCCC1,-3.641
Cc1occc1C(=O)N1C[C@@H]2OCCN(c3ncccn3)[C@@H]2C1,-6.649
COc1cccc(-c2nnn(C3CCN(CC(F)(F)F)C3=O)n2)c1 (stereo unspecified),-0.4182
COc1ccccc1C1(NCc2c(C)nc3c(C)cccn23)CCCC1,11.08
CNC(=O)c1c(C)cccc1NCc1noc(C2CC2)n1,1.947

From ChEMBL document CHEMBL3988442, “University of Dundee, Small-Polar-MMV Screening Library” (2021).